Test results: ChEMBL document CHEMBL4316593 (Eur J Med Chem, 2019)
Further values from the same series stand in other lists.

Legend:
Type in all cases: cell-based
Details in all cases: U-87MG ATCC
[1] = Inhibition of RTK/PI3K/AKT/mTOR signaling in human U87 cells assessed as down regulation of C5orf34 gene expression at cytotoxic IC50 measured after 48 hrs relative to control
[2] = Inhibition of RTK/PI3K/AKT/mTOR signaling in human U87 cells assessed as down regulation of ARHGAP31 gene expression at cytotoxic IC50 measured after 48 hrs relative to control
[3] = Inhibition of RTK/PI3K/AKT/mTOR signaling in human U87 cells assessed as down regulation of NOCT gene expression at cytotoxic IC50 measured after 48 hrs relative to control
[4] = Inhibition of RTK/PI3K/AKT/mTOR signaling in human U87 cells assessed as down regulation of NMU gene expression at cytotoxic IC50 measured after 48 hrs relative to control
[5] = Inhibition of RTK/PI3K/AKT/mTOR signaling in human U87 cells assessed as down regulation of CENPQ gene expression at cytotoxic IC50 measured after 48 hrs relative to control
[6] = Inhibition of RTK/PI3K/AKT/mTOR signaling in human U87 cells assessed as down regulation of ISOC1 gene expression at cytotoxic IC50 measured after 48 hrs relative to control
[7] = Inhibition of RTK/PI3K/AKT/mTOR signaling in human U87 cells assessed as down regulation of RNR1 gene expression at cytotoxic IC50 measured after 48 hrs relative to control
[8] = Inhibition of RTK/PI3K/AKT/mTOR signaling in human U87 cells assessed as down regulation of HSPA4L gene expression at cytotoxic IC50 measured after 48 hrs relative to control
[9] = Inhibition of RTK/PI3K/AKT/mTOR signaling in human U87 cells assessed as down regulation of TACC3 gene expression at cytotoxic IC50 measured after 48 hrs relative to control
[10] = Inhibition of RTK/PI3K/AKT/mTOR signaling in human U87 cells assessed as down regulation of CSNK2A2 gene expression at cytotoxic IC50 measured after 48 hrs relative to control
[11] = Inhibition of RTK/PI3K/AKT/mTOR signaling in human U87 cells assessed as down regulation of MPZL3 gene expression at cytotoxic IC50 measured after 48 hrs relative to control
[12] = Inhibition of RTK/PI3K/AKT/mTOR signaling in human U87 cells assessed as down regulation of PTTG1 gene expression at cytotoxic IC50 measured after 48 hrs relative to control
[13] = Inhibition of RTK/PI3K/AKT/mTOR signaling in human U87 cells assessed as down regulation of RHEB gene expression at cytotoxic IC50 measured after 48 hrs relative to control
[14] = Inhibition of RTK/PI3K/AKT/mTOR signaling in human U87 cells assessed as down regulation of TTPAL gene expression at cytotoxic IC50 measured after 48 hrs relative to control
[15] = Inhibition of RTK/PI3K/AKT/mTOR signaling in human U87 cells assessed as down regulation of DCXR gene expression at cytotoxic IC50 measured after 48 hrs relative to control
[16] = Inhibition of RTK/PI3K/AKT/mTOR signaling in human U87 cells assessed as down regulation of MITF gene expression at cytotoxic IC50 measured after 48 hrs relative to control
[17] = Inhibition of RTK/PI3K/AKT/mTOR signaling in human U87 cells assessed as down regulation of SLU7 gene expression at cytotoxic IC50 measured after 48 hrs relative to control
[18] = Inhibition of RTK/PI3K/AKT/mTOR signaling in human U87 cells assessed as down regulation of NSF gene expression at cytotoxic IC50 measured after 48 hrs relative to control
[19] = Inhibition of RTK/PI3K/AKT/mTOR signaling in human U87 cells assessed as down regulation of NDFIP1 gene expression at cytotoxic IC50 measured after 48 hrs relative to control
[20] = Inhibition of RTK/PI3K/AKT/mTOR signaling in human U87 cells assessed as down regulation of CPNE3 gene expression at cytotoxic IC50 measured after 48 hrs relative to control
[21] = Inhibition of RTK/PI3K/AKT/mTOR signaling in human U87 cells assessed as up regulation of GFY gene expression at cytotoxic IC50 measured after 48 hrs relative to control
[22] = Inhibition of RTK/PI3K/AKT/mTOR signaling in human U87 cells assessed as up regulation of CACNB4 gene expression at cytotoxic IC50 measured after 48 hrs relative to control
[23] = Inhibition of RTK/PI3K/AKT/mTOR signaling in human U87 cells assessed as up regulation of SMIM10L2A gene expression at cytotoxic IC50 measured after 48 hrs relative to control
[24] = Inhibition of RTK/PI3K/AKT/mTOR signaling in human U87 cells assessed as up regulation of PLOD2 gene expression at cytotoxic IC50 measured after 48 hrs relative to control
[25] = Inhibition of RTK/PI3K/AKT/mTOR signaling in human U87 cells assessed as up regulation of thymidine phosphorylase gene expression at cytotoxic IC50 measured after 48 hrs relative to control
[26] = Inhibition of RTK/PI3K/AKT/mTOR signaling in human U87 cells assessed as up regulation of apolipoprotein B mRNA editing enzyme catalytic subunit 3C gene expression at cytotoxic IC50 measured after 48 hrs relative to control
[27] = Inhibition of RTK/PI3K/AKT/mTOR signaling in human U87 cells assessed as up regulation of thymosin beta 4, X-linked gene expression at cytotoxic IC50 measured after 48 hrs relative to control
[28] = Inhibition of RTK/PI3K/AKT/mTOR signaling in human U87 cells assessed as up regulation of receptor-like tyrosine kinase gene expression at cytotoxic IC50 measured after 48 hrs relative to control
[29] = Inhibition of RTK/PI3K/AKT/mTOR signaling in human U87 cells assessed as up regulation of mindbomb E3 ubiquitin protein ligase 2 gene expression at cytotoxic IC50 measured after 48 hrs relative to control
[30] = Inhibition of RTK/PI3K/AKT/mTOR signaling in human U87 cells assessed as up regulation of serologically defined colon cancer antigen 3 gene expression at cytotoxic IC50 measured after 48 hrs relative to control
[31] = Inhibition of RTK/PI3K/AKT/mTOR signaling in human U87 cells assessed as up regulation of RPSA gene expression at cytotoxic IC50 measured after 48 hrs relative to control
[32] = Inhibition of RTK/PI3K/AKT/mTOR signaling in human U87 cells assessed as up regulation of ST13 gene expression at cytotoxic IC50 measured after 48 hrs relative to control

CC(=O)C(=NNc1ccccc1C#N)C(C)=O
log2FC [1]: -2.63 | log2FC [2]: -2.01 | log2FC [3]: -1.52 | log2FC [4]: -1.26 | log2FC [5]: -1.25 | log2FC [6]: -1.14 | log2FC [7]: -1.03 | log2FC [8]: -2.17 | log2FC [9]: -0.959 | log2FC [10]: -0.864 | log2FC [11]: -0.834 | log2FC [12]: -0.834 | log2FC [13]: -0.768 | log2FC [14]: -0.765 | log2FC [15]: -0.676 | log2FC [16]: -1.82 | log2FC [17]: -0.621 | log2FC [18]: -0.559 | log2FC [19]: -0.533 | log2FC [20]: -0.392 | log2FC [21]: 2.8 | log2FC [22]: 2.11 | log2FC [23]: 2 | log2FC [24]: 1.89 | log2FC [25]: 1.55 | log2FC [26]: 1.35 | log2FC [27]: 1.25 | log2FC [28]: 0.952 | log2FC [29]: 0.872 | log2FC [30]: 0.7 | log2FC [31]: 0.581 | log2FC [32]: 0.428
